Measured values published in US8306752.
The exact form of at least one protein or probe is not confirmed. At least one result comes from cells or an extract, where the contact may be indirect.

Sequences of proteins named here, by UniProt entry; tags and fusion partners are left off. A change or cut given only in a name is not applied to a line headed by its entry.
UniProt P0ACL9: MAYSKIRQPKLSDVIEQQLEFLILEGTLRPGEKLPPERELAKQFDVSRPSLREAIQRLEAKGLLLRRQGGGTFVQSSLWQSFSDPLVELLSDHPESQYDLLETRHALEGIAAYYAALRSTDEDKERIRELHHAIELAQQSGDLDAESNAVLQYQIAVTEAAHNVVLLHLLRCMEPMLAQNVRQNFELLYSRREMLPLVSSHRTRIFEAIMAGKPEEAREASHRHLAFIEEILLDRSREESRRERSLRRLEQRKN

Target: PdhR (Escherichia coli MG1655) (UniProt P0ACL9)
Experiment: binding assay
Conditions: ChIP-qPCR in LB + 0.2% glucose; t-test p 0.004, rank-sum p 0.1; 2 of 6 replicates extremely enriched; SEQ:7 is the fecA motif of FIG. 6D, ChIP amplicon not given; protein in cells

## GGAAAATAATTCTTATTTCGATTGTCCTTTTTACCCTTCTCGTTCGACTCAT (double strand) [fecA operon promoter region]
  binding result: binds
